In the supplement of paper PMC10849652:
Some of the results follow.

The chains behind the UniProt entries cited, without tags or fusion partners. Where a name states a change or a piece, a line headed by the entry shows the natural chain unless it says otherwise.
UniProt Q9UI26: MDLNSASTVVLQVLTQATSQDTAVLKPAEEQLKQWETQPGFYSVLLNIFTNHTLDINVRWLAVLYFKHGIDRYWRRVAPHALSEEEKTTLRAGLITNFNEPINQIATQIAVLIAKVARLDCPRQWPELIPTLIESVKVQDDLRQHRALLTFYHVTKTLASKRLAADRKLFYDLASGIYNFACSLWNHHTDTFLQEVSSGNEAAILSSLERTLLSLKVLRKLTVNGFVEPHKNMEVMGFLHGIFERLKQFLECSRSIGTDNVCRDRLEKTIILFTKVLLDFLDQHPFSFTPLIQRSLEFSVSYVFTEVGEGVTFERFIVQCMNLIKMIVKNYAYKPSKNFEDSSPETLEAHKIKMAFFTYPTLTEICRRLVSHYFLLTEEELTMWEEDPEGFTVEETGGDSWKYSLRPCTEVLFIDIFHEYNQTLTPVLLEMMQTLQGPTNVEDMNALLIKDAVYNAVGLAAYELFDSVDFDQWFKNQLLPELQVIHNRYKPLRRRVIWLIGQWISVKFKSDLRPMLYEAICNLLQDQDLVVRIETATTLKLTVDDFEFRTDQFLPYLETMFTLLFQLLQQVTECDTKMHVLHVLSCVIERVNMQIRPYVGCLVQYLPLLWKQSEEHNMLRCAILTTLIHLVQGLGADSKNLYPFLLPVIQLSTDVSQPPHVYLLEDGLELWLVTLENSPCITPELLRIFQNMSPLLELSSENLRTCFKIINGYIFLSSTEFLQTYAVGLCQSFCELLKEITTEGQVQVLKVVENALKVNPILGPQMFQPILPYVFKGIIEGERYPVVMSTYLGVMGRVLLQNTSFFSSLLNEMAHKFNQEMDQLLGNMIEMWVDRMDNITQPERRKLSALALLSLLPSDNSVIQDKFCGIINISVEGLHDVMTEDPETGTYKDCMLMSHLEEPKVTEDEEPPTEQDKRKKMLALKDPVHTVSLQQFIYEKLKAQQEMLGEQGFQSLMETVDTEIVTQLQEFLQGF
UniProt Q8N5M9: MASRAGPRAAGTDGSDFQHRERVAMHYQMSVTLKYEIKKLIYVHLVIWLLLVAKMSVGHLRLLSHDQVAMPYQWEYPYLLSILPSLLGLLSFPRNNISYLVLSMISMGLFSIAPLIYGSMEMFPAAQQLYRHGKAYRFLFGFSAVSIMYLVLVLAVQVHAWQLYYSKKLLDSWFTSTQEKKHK
UniProt Q9H1K1: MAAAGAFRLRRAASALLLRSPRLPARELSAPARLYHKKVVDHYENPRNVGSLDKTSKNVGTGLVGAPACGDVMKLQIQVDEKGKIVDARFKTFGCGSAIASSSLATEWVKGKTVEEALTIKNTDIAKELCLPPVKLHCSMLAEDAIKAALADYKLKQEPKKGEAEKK
UniProt P51617, whole entry, looked up: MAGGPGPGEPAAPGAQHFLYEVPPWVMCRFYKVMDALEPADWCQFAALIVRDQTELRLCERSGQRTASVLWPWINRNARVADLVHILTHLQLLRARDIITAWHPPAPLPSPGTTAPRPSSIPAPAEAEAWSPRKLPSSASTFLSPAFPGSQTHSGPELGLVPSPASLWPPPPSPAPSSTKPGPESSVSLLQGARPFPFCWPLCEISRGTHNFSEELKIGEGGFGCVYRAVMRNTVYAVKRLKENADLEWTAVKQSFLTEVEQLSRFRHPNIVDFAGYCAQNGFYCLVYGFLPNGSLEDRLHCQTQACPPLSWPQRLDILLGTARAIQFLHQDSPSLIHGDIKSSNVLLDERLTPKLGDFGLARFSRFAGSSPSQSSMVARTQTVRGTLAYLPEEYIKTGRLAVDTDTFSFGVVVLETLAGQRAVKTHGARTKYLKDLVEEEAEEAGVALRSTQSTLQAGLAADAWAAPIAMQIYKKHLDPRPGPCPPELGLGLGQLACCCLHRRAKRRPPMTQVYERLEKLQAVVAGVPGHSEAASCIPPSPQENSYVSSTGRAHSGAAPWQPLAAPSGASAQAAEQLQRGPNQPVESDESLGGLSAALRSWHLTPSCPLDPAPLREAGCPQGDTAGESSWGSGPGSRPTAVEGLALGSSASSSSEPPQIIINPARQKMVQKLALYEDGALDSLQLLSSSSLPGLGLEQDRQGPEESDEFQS
UniProt Q9H1B7, whole entry, looked up: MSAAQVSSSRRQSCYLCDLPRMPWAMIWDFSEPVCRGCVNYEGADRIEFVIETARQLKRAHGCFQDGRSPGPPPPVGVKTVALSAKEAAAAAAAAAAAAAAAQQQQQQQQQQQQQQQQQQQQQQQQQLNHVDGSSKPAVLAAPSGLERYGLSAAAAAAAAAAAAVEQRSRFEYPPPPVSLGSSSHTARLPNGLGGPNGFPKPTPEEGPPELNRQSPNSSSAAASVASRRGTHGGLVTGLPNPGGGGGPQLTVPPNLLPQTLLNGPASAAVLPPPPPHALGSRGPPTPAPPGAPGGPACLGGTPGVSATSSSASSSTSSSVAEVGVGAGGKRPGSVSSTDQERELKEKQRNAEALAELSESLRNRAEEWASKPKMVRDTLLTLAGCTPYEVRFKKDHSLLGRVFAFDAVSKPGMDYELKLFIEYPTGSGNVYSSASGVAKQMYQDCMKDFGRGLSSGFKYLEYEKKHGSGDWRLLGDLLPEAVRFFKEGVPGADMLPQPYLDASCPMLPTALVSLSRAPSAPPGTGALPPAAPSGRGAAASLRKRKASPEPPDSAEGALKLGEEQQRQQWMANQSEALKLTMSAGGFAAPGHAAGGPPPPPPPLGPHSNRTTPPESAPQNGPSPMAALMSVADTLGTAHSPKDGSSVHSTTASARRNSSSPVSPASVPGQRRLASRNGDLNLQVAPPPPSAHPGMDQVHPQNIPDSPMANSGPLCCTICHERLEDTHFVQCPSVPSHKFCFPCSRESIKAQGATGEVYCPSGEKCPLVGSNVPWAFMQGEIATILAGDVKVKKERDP
UniProt O95251, whole entry, looked up: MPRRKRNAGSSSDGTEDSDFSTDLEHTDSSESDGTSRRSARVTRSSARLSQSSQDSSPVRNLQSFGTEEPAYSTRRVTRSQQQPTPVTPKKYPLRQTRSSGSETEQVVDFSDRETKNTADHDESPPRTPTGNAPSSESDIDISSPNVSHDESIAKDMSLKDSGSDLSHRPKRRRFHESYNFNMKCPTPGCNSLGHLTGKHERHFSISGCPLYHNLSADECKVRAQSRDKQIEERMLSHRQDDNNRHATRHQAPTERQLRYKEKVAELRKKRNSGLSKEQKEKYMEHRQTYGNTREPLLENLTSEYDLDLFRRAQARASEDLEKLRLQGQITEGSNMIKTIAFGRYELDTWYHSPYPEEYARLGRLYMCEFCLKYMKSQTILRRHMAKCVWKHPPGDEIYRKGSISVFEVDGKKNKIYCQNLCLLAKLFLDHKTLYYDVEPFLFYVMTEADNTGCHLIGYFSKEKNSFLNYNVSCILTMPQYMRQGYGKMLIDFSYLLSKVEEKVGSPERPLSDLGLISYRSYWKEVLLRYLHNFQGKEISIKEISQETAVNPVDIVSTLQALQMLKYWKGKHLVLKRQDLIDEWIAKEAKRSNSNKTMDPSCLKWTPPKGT
UniProt Q9UK76: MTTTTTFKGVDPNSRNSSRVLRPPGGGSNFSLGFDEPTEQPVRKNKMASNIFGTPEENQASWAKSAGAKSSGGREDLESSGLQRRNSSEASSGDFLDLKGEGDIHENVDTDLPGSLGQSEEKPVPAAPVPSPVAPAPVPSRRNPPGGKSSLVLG
UniProt Q9NVH2, whole entry, looked up: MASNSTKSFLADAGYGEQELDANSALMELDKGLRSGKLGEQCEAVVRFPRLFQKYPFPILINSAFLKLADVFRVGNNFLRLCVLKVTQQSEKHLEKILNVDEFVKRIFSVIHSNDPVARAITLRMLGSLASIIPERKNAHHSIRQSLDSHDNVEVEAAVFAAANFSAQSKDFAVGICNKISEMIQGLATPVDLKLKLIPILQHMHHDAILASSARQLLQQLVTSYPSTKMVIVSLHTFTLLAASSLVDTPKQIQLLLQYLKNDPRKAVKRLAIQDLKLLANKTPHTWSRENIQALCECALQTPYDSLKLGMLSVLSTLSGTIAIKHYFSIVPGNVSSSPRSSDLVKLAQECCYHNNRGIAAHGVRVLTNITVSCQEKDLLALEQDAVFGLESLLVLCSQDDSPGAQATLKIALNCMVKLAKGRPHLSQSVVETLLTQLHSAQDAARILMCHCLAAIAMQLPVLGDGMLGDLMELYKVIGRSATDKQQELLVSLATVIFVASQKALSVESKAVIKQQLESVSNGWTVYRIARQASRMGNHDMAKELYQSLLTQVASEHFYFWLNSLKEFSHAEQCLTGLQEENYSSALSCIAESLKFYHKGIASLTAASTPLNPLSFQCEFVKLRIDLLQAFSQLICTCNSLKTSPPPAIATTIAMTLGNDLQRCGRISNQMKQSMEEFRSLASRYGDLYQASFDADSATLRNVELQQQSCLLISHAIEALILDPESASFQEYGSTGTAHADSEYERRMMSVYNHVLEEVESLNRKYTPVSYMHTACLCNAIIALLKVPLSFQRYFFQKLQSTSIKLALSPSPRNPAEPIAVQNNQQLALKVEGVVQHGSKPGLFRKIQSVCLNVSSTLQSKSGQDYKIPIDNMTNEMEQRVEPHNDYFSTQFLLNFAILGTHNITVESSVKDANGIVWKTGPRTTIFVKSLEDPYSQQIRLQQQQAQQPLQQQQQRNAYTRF
UniProt Q9H7Z6: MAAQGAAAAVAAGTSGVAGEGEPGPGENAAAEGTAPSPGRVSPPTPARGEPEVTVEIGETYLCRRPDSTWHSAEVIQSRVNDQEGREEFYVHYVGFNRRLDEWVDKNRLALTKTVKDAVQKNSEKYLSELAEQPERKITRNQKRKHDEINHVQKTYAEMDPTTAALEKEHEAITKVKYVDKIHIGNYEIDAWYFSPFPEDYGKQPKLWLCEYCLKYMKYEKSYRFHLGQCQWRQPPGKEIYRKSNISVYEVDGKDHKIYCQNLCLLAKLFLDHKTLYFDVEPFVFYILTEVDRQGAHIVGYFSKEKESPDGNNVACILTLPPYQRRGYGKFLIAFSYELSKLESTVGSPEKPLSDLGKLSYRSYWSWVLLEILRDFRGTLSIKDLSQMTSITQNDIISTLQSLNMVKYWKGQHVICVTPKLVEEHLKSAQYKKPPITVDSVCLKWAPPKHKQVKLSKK
UniProt O00410: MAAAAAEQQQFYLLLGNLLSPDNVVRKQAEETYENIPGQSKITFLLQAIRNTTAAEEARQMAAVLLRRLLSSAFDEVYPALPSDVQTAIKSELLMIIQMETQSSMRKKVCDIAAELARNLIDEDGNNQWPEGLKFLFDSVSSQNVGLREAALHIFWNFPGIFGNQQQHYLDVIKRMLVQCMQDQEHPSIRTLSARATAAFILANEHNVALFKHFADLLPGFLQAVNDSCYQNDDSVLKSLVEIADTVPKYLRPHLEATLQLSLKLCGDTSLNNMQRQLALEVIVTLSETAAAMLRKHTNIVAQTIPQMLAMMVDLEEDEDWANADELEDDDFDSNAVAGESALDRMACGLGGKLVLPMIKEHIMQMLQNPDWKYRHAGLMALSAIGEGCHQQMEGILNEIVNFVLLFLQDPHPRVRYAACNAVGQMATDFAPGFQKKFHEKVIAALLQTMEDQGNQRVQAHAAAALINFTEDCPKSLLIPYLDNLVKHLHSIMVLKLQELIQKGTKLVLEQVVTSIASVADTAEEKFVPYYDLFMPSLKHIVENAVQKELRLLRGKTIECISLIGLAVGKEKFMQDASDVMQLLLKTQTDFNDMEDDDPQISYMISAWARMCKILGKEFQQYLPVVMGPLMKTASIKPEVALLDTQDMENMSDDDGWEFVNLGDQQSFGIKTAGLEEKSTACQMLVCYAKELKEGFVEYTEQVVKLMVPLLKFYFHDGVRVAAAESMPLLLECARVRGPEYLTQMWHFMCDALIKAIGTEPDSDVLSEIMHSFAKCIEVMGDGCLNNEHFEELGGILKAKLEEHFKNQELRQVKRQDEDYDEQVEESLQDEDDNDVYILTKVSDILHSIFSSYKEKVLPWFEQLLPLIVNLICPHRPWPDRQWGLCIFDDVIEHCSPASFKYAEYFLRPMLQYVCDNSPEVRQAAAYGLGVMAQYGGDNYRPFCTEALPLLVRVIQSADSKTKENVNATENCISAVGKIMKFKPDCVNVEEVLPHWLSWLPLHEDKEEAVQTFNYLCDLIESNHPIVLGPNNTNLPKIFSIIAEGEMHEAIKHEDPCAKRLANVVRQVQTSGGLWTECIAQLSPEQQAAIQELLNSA
UniProt Q9BUE6: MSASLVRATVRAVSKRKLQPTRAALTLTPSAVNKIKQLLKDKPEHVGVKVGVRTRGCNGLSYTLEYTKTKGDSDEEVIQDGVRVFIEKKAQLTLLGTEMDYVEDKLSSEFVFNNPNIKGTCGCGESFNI
UniProt Q8NC54: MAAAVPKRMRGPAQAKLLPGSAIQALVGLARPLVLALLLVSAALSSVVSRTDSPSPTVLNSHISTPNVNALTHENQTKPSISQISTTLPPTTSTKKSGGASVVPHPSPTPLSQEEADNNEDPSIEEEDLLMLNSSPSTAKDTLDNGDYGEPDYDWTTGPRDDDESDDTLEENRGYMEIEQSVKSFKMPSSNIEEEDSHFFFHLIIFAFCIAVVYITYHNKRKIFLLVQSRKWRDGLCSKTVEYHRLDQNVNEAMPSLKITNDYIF

Compound: CCCS(=O)(=O)Nc1ccc(F)c(C(=O)c2c[nH]c3ncc(-c4ccc(Cl)cc4)cc23)c1F [vemurafenib]
Assay: log2 fold change, soluble protein after heating vs DMSO (PISA); higher = thermal stabilisation; K562 lysate, 10 uM; active = over 0.2 and 3.5 SD of the protein, either way, in both replicates (recomputed)
How it was run: (§1)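 K562 pellets were dounce-homogenised in PBS pH 7.4 containing 1 mM MgCl2, and the crude extract, at 1 mg/mL protein, was exposed to 10 μM compound for 30 min. Aliquots were heated for 3 min across 48°C-58°C, pooled, brought to 0.5% NP-40 at 4°C and spun at 21,000xg for 90 min, with the supernatant taken as soluble protein. TMTpro 16plex LC-MS/MS with equalised channel sums quantified that protein. Values are log-two fold changes in thermal stability relative to solvent controls, taken from duplicates.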

log2 fold change, inactive:
ISOC2 (UniProt Q96AB3) 0.048, INTS5 (UniProt Q6P9B9) 0.052, ITPKA (UniProt P23677) -0.007, IPO11 isoform 2 (UniProt Q9UI26) 0.015, JAGN1 (UniProt Q8N5M9) 0.018, KDM1B (UniProt Q8NB78) -0.005, KDELR2 (UniProt P33947) 0.133, INTS9 (UniProt Q9NV88) 0.01, KCTD10 (UniProt Q9H3F6) 0.062, ISYNA1 (UniProt Q9NPH2) 0.019, ISCU (UniProt Q9H1K1) -0.032, IQGAP1 (UniProt P46940) -0.035, INTS14 (UniProt Q96SY0) -0.046, KDM1A (UniProt O60341) 0.021, KBTBD2 (UniProt Q8IY47) -0.035, IQSEC1 (UniProt Q6DN90) 0.058, IRAK1 (UniProt P51617) 0.086, ITGAV (UniProt P06756) 0.012, KCTD9 (UniProt Q7L273) 0.021, IRF2BPL (UniProt Q9H1B7) -0.039, IRF2BP1 (UniProt Q8IU81) 0.015, ISOC1 (UniProt Q96CN7) -0.066, KAT7 (UniProt O95251) 0.062, JPT1 (UniProt Q9UK76) 0.014, KCTD5 (UniProt Q9NXV2) 0.012, INTS7 (UniProt Q9NVH2) -0.059, IRF3 (UniProt Q14653) 0.03, ITPK1 (UniProt Q13572) 0.011, KAT8 (UniProt Q9H7Z6) -0.022, IPO5 isoform 3 (UniProt O00410) 0.008, ISCA1 isoform 2 (UniProt Q9BUE6) 0.007, JPT2 isoform 3 (UniProt Q9H910) 0.03, KCTD20 (UniProt Q7Z5Y7) 0.17, ITFG1 (UniProt Q8TB96) 0.015, KANSL3 (UniProt Q9P2N6) -0.006, KCT2 (UniProt Q8NC54) 0.046, JUND (UniProt P17535) 0.001, ISY1 isoform 1 (UniProt Q9ULR0) -0.186, ITGB1 (UniProt P05556) -0.011

Compound: CCCS(=O)(=O)Nc1ccc(F)c(C(=O)c2c[nH]c3ncc(Cl)cc23)c1F
Assay: as above
How it was run: as §1

log2 fold change, inactive:
ISOC2 (UniProt Q96AB3) 0.033, INTS5 (UniProt Q6P9B9) -0.167, ITPKA (UniProt P23677) 0.019, IPO11 isoform 2 (UniProt Q9UI26) 0.013, JAGN1 (UniProt Q8N5M9) -0.001, KDM1B (UniProt Q8NB78) 0.029, KDELR2 (UniProt P33947) 0.018, INTS9 (UniProt Q9NV88) 0.02, KCTD10 (UniProt Q9H3F6) -0.02, ISYNA1 (UniProt Q9NPH2) 0.008, ISCU (UniProt Q9H1K1) 0.016, IQGAP1 (UniProt P46940) -0.005, INTS14 (UniProt Q96SY0) 0.034, KDM1A (UniProt O60341) 0.004, KBTBD2 (UniProt Q8IY47) 0.006, IQSEC1 (UniProt Q6DN90) -0.11, IRAK1 (UniProt P51617) -0.033, ITGAV (UniProt P06756) 0.022, KCTD9 (UniProt Q7L273) 0.025, IRF2BPL (UniProt Q9H1B7) 0.026, IRF2BP1 (UniProt Q8IU81) 0.023, ISOC1 (UniProt Q96CN7) -0.025, KAT7 (UniProt O95251) 0.024, JPT1 (UniProt Q9UK76) -0.019, KCTD5 (UniProt Q9NXV2) 0.03, INTS7 (UniProt Q9NVH2) -0.058, IRF3 (UniProt Q14653) 0.023, ITPK1 (UniProt Q13572) 0.012, KAT8 (UniProt Q9H7Z6) 0.022, IPO5 isoform 3 (UniProt O00410) 0.008, ISCA1 isoform 2 (UniProt Q9BUE6) -0.059, JPT2 isoform 3 (UniProt Q9H910) 0.002, KCTD20 (UniProt Q7Z5Y7) 0.02, ITFG1 (UniProt Q8TB96) -0.009, KANSL3 (UniProt Q9P2N6) 0.107, KCT2 (UniProt Q8NC54) 0.023, JUND (UniProt P17535) 0.038, ISY1 isoform 1 (UniProt Q9ULR0) 0.034, ITGB1 (UniProt P05556) 0.018
